The list is a part of this screen's results and no random one: it gathers tests that were run many times, whatever their T/C, doses with no T/C, and many T/C values between a quarter and a half above the control. Other doses and runs of a compound stand elsewhere. T/C: endpoint of the treated group in % of that of the vehicle group. Some entries give survivors of the animals treated and no T/C: the source holds a T/C of zero for them, seemingly a mark for toxic or unscored doses. Some doses without a T/C left all or most animals alive at the check, yet need not have been tolerated: survival well below the control is almost never listed, so the zero probably covers shortened survival too. Counts of survivors are from the toxicity check (mostly the fifth day) where no day follows; animals may have died later. Schedule codes are those of the source, taken here to give the interval after Q, in days (D) or hours (H), and the number of doses after X. Some entries were tested several times; their values stand side by side, smallest first. Some structures stand for samples that the source files as different forms (salt, stereo form or complex); doses refer to the form tested. Where survival is the endpoint, this PubChem deposit counts one and a half times the control or more as active, and values a quarter to a half above the control carry no call in these data; other NCI protocols may use other cut-offs. Some T/C values are followed by the survivors on the day toxicity was checked, most often the fifth; where none is given, no animal had died by that day.
System: L1210 leukemia ip in BDF1 mice, survival T/C
Assay: NCI In Vivo Anticancer Drug Screen. Data for tumor model L1210 Leukemia (intraperitoneal) in B6D2F1 (BDF1) mice
Details: T/C endpoint: mean survival time, higher T/C = longer survival
[1] = dose: 400.0 mg/kg/injection, schedule: Q04DX003 (ip), vehicle: saline with Tween-80
[2] = dose: 400.0 mg/kg/injection, schedule: Q04DX003 (ip), vehicle: saline
[3] = dose: 200.0 mg/kg/injection, schedule: Q01DX001 (ip), vehicle: carboxymethylcellulose (CMC)
[4] = dose: 400.0 mg/kg/injection, schedule: Q01DX001 (ip), vehicle: carboxymethylcellulose (CMC)
[5] = dose: 400.0 mg/kg/injection, schedule: Q04DX002 (ip), vehicle: Klucel (hydroxypropylcellulose) (HPC)
[6] = dose: 300.0 mg/kg/injection, schedule: Q01DX001 (ip), vehicle: saline
[7] = dose: 200.0 mg/kg/injection, schedule: Q01DX001 (ip), vehicle: saline
[8] = dose: 400.0 mg/kg/injection, schedule: Q01DX001 (ip), vehicle: saline
[9] = dose: 400.0 mg/kg/injection, schedule: Q01DX009 (ip), vehicle: Klucel (hydroxypropylcellulose) (HPC)
[10] = dose: 100.0 mg/kg/injection, schedule: Q04DX002 (ip), vehicle: saline with Tween-80
[11] = dose: 200.0 mg/kg/injection, schedule: Q04DX002 (ip), vehicle: saline with Tween-80
[12] = dose: 400.0 mg/kg/injection, schedule: Q04DX002 (ip), vehicle: saline with Tween-80
[13] = dose: 200.0 mg/kg/injection, schedule: Q04DX003 (ip), vehicle: saline with Tween-80
[14] = dose: 100.0 mg/kg/injection, schedule: Q01DX001 (ip), vehicle: saline with Tween-80
[15] = dose: 200.0 mg/kg/injection, schedule: Q01DX009 (ip), vehicle: saline
[16] = dose: 100.0 mg/kg/injection, schedule: Q01DX009 (ip), vehicle: saline

With O=[N+]([O-])c1ccc(-c2nn[nH]n2)cc1 the survivor count [1] was 6 of 6 and the T/C [2] was 132 % of control [4 of 6 alive].

In the case of Cc1cc([N+](=O)[O-])c2nnnn2c1, the survivor count (dose: 400.0 mg/kg/injection, schedule: Q01DX001 (ip), vehicle: other) is reported as 0 of 4.

In the case of O=S(=O)(Cl)CCCBr, the survivor count (dose: 400.0 mg/kg/injection, schedule: Q01DX009 (ip), vehicle: saline sonified) is reported as 0 of 6.

In the case of CC[N+](C)(C)CCCNC(=O)C12CC3CC(CC(C3)C1)C2, the survivor count (dose: 100.0 mg/kg/injection, schedule: Q04DX002 (ip), vehicle: saline) is reported as 0 of 3, the survivor count (dose: 200.0 mg/kg/injection, schedule: Q04DX002 (ip), vehicle: saline) is reported as 0 of 3 and the survivor count (dose: 400.0 mg/kg/injection, schedule: Q04DX002 (ip), vehicle: saline) is reported as 0 of 3.

In the case of CCOC(=O)NC(C)(C)CN(C(=O)OCC)C(C)(C)CO, the survivor count [2] is reported as 0 of 6.

For C=CCN(CC=C)c1nc(Cl)nc(Cl)n1, the survivor count [3] was 1 of 4, the survivor count [4] was 0 of 4 and the survivor count [5] was 3 of 3.

For CC(=O)Nc1nc2ncc(CCN(C)c3ccc(C(=O)O)cc3)nc2c(=O)[nH]1, the survivor count [6] was 4 of 6.

With c1ccc(CCN2CCN(CCc3ccccn3)CC2)nc1 the survivor count [7] was 1 of 4 and the survivor count [8] was 0 of 4.

For CC(=O)[O][Hg][CH]1Cc2ccccc2O1 (centres undefined), the survivor count (dose: 30.0 mg/kg/injection, schedule: Q01DX001 (ip), vehicle: carboxymethylcellulose (CMC)) was 3 of 6, the survivor count (dose: 60.0 mg/kg/injection, schedule: Q01DX001 (ip), vehicle: carboxymethylcellulose (CMC)) was 0 of 6 and the survivor count (dose: 75.0 mg/kg/injection, schedule: Q01DX001 (ip), vehicle: carboxymethylcellulose (CMC)) was 0 of 6. The survivor count (dose: 150.0 mg/kg/injection, schedule: Q01DX001 (ip), vehicle: carboxymethylcellulose (CMC)) was 0 of 6 and the survivor count (dose: 300.0 mg/kg/injection, schedule: Q01DX001 (ip), vehicle: carboxymethylcellulose (CMC)) was 0 of 6.

In the case of O=C1CC(N2CC2)C(=O)N1c1ccccc1 (centres undefined), the survivor count [9] is reported as 0 of 6.

In the case of CN(C)CCCN(CCCN(C)C)Cc1ccccc1, the survivor count [6] is reported as 0 of 6.

For CC(=O)OCC(=O)[C@@]1(O)CC[C@H]2[C@@H]3CCC4=CC(=O)C=C[C@]4(C)[C@H]3C(=O)C[C@@]21C, the survivor count (dose: 385.0 mg/kg/injection, schedule: Q01DX009 (ip), vehicle: Klucel (hydroxypropylcellulose) (HPC)) was 3 of 6.

In the case of CCOC(=O)C(CN(CC)CC)c1ccccc1 (centres undefined), the T/C [3] is reported as 129 % of control.

For C/C=C(/C#N)c1ccccc1, the survivor count [1] was 0 of 6.

c1ccc(CCN2CCCC2)nc1 was tested, and the survivor count (dose: 50.0 mg/kg/injection, schedule: Q04DX002 (ip), vehicle: saline with Tween-80) was 1 of 3, the survivor count [10] was 0 of 3 and the survivor count [11] was 0 of 3. The survivor count [12] was 0 of 3.

With CCCCCCCC(=O)N(CC(C)C)CC(C)C the survivor count (dose: 100.0 mg/kg/injection, schedule: Q01DX009 (ip), vehicle: carboxymethylcellulose (CMC)) was 3 of 3 and the survivor count (dose: 400.0 mg/kg/injection, schedule: Q01DX009 (ip), vehicle: carboxymethylcellulose (CMC)) was 3 of 3 and 6 of 6.

In the case of CN1CCN(C(=S)Nc2ccccc2)CC1, the survivor count (dose: 200.0 mg/kg/injection, schedule: Q01DX001 (ip), vehicle: Klucel (hydroxypropylcellulose) (HPC)) is reported as 3 of 6 and the survivor count (dose: 400.0 mg/kg/injection, schedule: Q01DX001 (ip), vehicle: Klucel (hydroxypropylcellulose) (HPC)) is reported as 3 of 6.

With CC1(C)CN1c1nc(N2CC2(C)C)nc(N2CC2(C)C)n1 the T/C (dose: 100.0 mg/kg/injection, schedule: Q01DX001 (ip), vehicle: carboxymethylcellulose (CMC)) was 131 % of control and the survivor count [4] was 1 of 6.

In the case of CCCN(CCC)CCCN(CCC)CCCCN(CCC)CCCN(CCC)CCC, the survivor count [7] is reported as 2 of 4 and the survivor count [8] is reported as 0 of 4.

For CCCCOP(=O)(CCl)OCCCC, the survivor count [9] was 3 of 6.

CCCCCCCCCCCCCCCCS(=O)(=O)N/N=C(/c1cccc(N)c1)N1CCCCC1 was tested, and the survivor count [13] was 6 of 6.

For CC1CCC(NC2=NCCO2)C(C)C1 (centres undefined), the survivor count [13] was 1 of 6 and the survivor count [1] was 0 of 6.

With O=[N+]([O-])c1[nH]c(Cl)nc1Cl the survivor count [14] was 2 of 6, the survivor count (dose: 200.0 mg/kg/injection, schedule: Q01DX001 (ip), vehicle: saline with Tween-80) was 0 of 6 and the survivor count (dose: 400.0 mg/kg/injection, schedule: Q01DX001 (ip), vehicle: saline with Tween-80) was 0 of 6.

In the case of COc1ccc(C(C#N)N2CCOCC2)cc1 (centres undefined), the survivor count (dose: 400.0 mg/kg/injection, schedule: Q04DX003 (ip), vehicle: Klucel (hydroxypropylcellulose) (HPC)) is reported as 0 of 6.

With CC(N)CCC(C)(C)O (centres undefined) the survivor count [15] was 1 of 6.

With CCC(CCCN(CC)CCc1ccccc1)OC(=O)c1cc(OC)c(OC)c(OC)c1 (centres undefined) the survivor count (dose: 150.0 mg/kg/injection, schedule: Q01DX009 (ip), vehicle: saline) was 0 of 6, the survivor count (dose: 150.0 mg/kg/injection, schedule: Q04DX003 (ip), vehicle: saline) was 3 of 4 and the survivor count (dose: 300.0 mg/kg/injection, schedule: Q01DX009 (ip), vehicle: saline) was 0 of 6. The survivor count (dose: 300.0 mg/kg/injection, schedule: Q04DX003 (ip), vehicle: saline) was 0 of 4.

With COc1ccc(CNc2ccccc2C(=O)O)cc1OC the survivor count [7] was 4 of 4.

For CCCN(CCC)CCCC#N, the survivor count [1] was 0 of 6.

With CN(N=O)C(=O)NCC1OC(OC2(CO)OC(CNC(=O)N(C)N=O)C(O)C2O)C(O)C(O)C1O (centres undefined) the T/C (dose: 200.0 mg/kg/injection, schedule: Q01DX009 (ip), vehicle: saline with Tween-80) was 140 % of control and the T/C [15] was 139 % of control.

CCCC(=O)N1CCCCC1 was tested, and the survivor count (dose: 200.0 mg/kg/injection, schedule: Q04DX002 (ip), vehicle: Klucel (hydroxypropylcellulose) (HPC)) was 3 of 3 and the survivor count [5] was 1 of 3.

In the case of NCS(=O)(=O)O, the survivor count [14] is reported as 0 of 3, the survivor count [16] is reported as 6 of 6 and the survivor count [15] is reported as 6 of 6. For the same compound, the survivor count (dose: 400.0 mg/kg/injection, schedule: Q01DX009 (ip), vehicle: saline) was 6 of 6.

For CC(=O)c1cc(C)c(C)s1, the survivor count (dose: 100.0 mg/kg/injection, schedule: Q01DX009 (ip), vehicle: saline with Tween-80) was 6 of 6 and the survivor count [1] was 4 of 6.

In the case of Nc1ccc(CSc2ccc(Cl)cc2)cc1, the survivor count (dose: 115.0 mg/kg/injection, schedule: Q01DX009 (ip), vehicle: Klucel (hydroxypropylcellulose) (HPC)) is reported as 2 of 3.

For O=C(CS(=O)(=O)Cc1ccccc1)N1CCOCC1, the survivor count [16] was 6 of 6.

For CCCC[N+](C)(CCCC)CC(O)c1cc(-c2ccc(Cl)cc2)nc2c(Cl)cc(Cl)cc12 (centres undefined), the survivor count (dose: 25.0 mg/kg/injection, schedule: Q04DX003 (ip), vehicle: saline) was 6 of 6, the survivor count (dose: 50.0 mg/kg/injection, schedule: Q04DX003 (ip), vehicle: saline) was 2 of 6 and the survivor count (dose: 100.0 mg/kg/injection, schedule: Q04DX003 (ip), vehicle: acetone) was 1 of 6. For the same compound, the survivor count (dose: 200.0 mg/kg/injection, schedule: Q04DX003 (ip), vehicle: acetone) was 0 of 6 and the survivor count (dose: 400.0 mg/kg/injection, schedule: Q04DX003 (ip), vehicle: acetone) was 0 of 6.

NC(=S)N/N=C/c1ccc2c(c1)OCO2 was tested, and the survivor count [1] was 2 of 6.

For Clc1nnc(Nc2ccccc2)c2ccccc12, the survivor count (dose: 100.0 mg/kg/injection, schedule: Q04DX003 (ip), vehicle: saline) was 6 of 6 and the survivor count [9] was 6 of 6.

With CN(C)C(=S)SCC(=O)[O][Sn]([c]1ccccc1)([c]1ccccc1)[c]1ccccc1 the survivor count [10] was 0 of 3, the survivor count [11] was 0 of 3 and the survivor count [12] was 0 of 3.

— PubChem BioAssay AID248 (DTP/NCI, 2004)
